In this assay the target is T1, ER luminal domain of activating transcription factor 6α (amino acids 448–570) with Myc tag and C-terminal KDEL retention signal (Ad-ATF6α-DN-Myc-KDEL) (UniProt P18850).
T1 sequence: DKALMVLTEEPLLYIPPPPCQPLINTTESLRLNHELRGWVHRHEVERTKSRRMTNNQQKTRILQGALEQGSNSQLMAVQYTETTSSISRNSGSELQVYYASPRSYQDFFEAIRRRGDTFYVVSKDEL
Put plainly: co-IP; NRVM co-infected with adenoviruses for Myc-tagged ATF6α and Thbs3 (or βgal control); non-denaturing lysis buffer (1% Triton X-100, 50 mM Tris-HCl pH 7.4, 150 mM NaCl); IP with anti-c-Myc antibody and Protein A/G magnetic beads; Western blot for Thbs3. On the technique in general: In western blotting, separated proteins are transferred to a membrane and probed.

By UniProt entry, the sequences of proteins in these tests, tags left out. Residues count along the entry.
UniProt Q05895, residues 22-956: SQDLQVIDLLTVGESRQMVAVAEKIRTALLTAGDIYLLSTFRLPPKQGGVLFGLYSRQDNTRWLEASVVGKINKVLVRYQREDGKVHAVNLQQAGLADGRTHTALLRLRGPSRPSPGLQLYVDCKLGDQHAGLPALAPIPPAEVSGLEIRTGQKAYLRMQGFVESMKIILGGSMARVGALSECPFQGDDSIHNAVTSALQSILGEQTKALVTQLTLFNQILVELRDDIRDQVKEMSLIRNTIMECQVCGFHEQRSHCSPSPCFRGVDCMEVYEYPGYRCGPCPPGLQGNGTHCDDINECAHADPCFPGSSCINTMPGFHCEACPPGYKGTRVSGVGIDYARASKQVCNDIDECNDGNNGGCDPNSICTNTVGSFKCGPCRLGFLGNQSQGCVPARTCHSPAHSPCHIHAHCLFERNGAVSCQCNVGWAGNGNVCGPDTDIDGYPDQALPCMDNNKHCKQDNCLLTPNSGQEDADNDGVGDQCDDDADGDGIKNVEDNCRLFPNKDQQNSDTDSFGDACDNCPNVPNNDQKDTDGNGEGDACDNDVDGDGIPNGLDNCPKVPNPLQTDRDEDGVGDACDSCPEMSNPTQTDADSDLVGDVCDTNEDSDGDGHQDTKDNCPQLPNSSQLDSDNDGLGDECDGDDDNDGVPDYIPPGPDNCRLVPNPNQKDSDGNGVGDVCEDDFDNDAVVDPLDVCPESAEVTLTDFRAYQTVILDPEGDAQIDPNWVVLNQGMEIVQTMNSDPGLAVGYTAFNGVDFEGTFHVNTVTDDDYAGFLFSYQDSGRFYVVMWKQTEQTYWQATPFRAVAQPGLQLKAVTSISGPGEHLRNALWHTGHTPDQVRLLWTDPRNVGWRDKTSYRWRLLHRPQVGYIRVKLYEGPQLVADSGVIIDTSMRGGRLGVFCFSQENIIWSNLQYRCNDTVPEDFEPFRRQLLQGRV

Results are given in words; binding and its absence hold for the method and conditions named. In cells and extracts the contact can be indirect. Some results given as binding are weak or reduced against the parent protein; the word gives no strength. Sequences can lack the tags named with a protein.

In the case of “Thrombospondin-3 (Thbs3), full-length mouse, overexpressed by adenovirus (AdThbs3) (from UniProt Q05895 22-956)”, the binding entry is reported as “binds”.

Values taken from article PMC6325143.
